# Percent effect of library compounds

Results are given as percent effect.
The record does not define 0% and 100%; most values in the screen are far below 50% and negative numbers occur (in some assays of this library far below -100).
The compounds are a random part of those screened.

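Assay of Toxoplasma gondii numbers, read through their beta-galactosidase reporter with a colour substrate. Compounds at 50 µM. The record gives no direction; the compounds picked for IC50 retests had high values, so higher reads as fewer parasites. Of about 18,000 compounds tested this way, about 170 (0.94%) reached 50% or more in at least one test.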

{"structure": "CNC(=O)Cn1cnc2c1c(=O)[nH]c(=O)n2C", "Percent Effect": 0.9738}
{"structure": "CCOC(C(=O)N(C)CC(N)=O)c1ccccc1", "stereo": "configuration not stated", "Percent Effect": 4.805}
{"structure": "CCC(N)(CO)c1ccccc1", "stereo": "configuration not stated", "Percent Effect": 9.93}
{"structure": "CN(CCO)c1ccc2ccc(F)cc2n1", "Percent Effect": 5.476}
{"structure": "NC(=O)c1ccc(CNC(=O)CCc2ccccc2)o1", "Percent Effect": -8.391}
{"structure": "Cc1ccccc1-c1nnc(CN2CCCS2(=O)=O)o1", "Percent Effect": -12.39}
{"structure": "N#CCOC(=O)c1ccccc1SC1CCS(=O)(=O)C1", "stereo": "configuration not stated", "Percent Effect": 3.347}
{"structure": "CCC1(O)CCCN(C(=O)Cc2cnccn2)C1", "stereo": "configuration not stated", "Percent Effect": -1.491}
{"structure": "c1cc(C2CNCCO2)nc(N2CCCC2)n1", "stereo": "configuration not stated", "Percent Effect": -3.895}
{"structure": "CC1CCCCN1S(=O)(=O)c1ccc(CCN)cc1", "stereo": "configuration not stated", "Percent Effect": -12.2}
{"structure": "Cc1cccc(C(=O)NC2CCCNC2)c1F", "stereo": "configuration not stated", "Percent Effect": 3.554}
{"structure": "CSCc1nnc(SC)o1", "Percent Effect": 1.418}
{"structure": "CC(=O)NC1CCN(c2ncccc2C#N)CC1", "Percent Effect": 27.17}
{"structure": "NCCNC(=O)c1ccccc1C(F)(F)F", "Percent Effect": -0.08732}
{"structure": "CCOC(=O)c1sc2ncn(CCC#N)c(=O)c2c1C", "Percent Effect": 7.677}
{"structure": "CCC1CN(C(=O)[C@H](O)c2ccccc2Cl)CCO1", "stereo": "some centres not stated", "Percent Effect": -4.227}
{"structure": "CCOc1ccc(Br)cc1CNc1nn[nH]n1", "Percent Effect": -12.8}
{"structure": "CC(C)(C)OCC(O)CN1CCOCC1", "stereo": "configuration not stated", "Percent Effect": -3.44}
{"structure": "N#Cc1ncn(CC2CCCCO2)c1C#N", "stereo": "configuration not stated", "Percent Effect": -2.869}
{"structure": "Cn1ncc(Cl)c1C(=O)N1CCc2ccccc2C1", "Percent Effect": 17.42}
{"structure": "CC(=O)N1CCCC(C(=O)NCCc2nnc(C)s2)C1", "stereo": "configuration not stated", "Percent Effect": -5.101}
{"structure": "COc1cccc(S(=O)(=O)NCCc2noc(C)n2)c1", "Percent Effect": -0.4328}
{"structure": "N#CC1CC(=O)N(Cc2ccccc2)C1", "stereo": "configuration not stated", "Percent Effect": 2.609}
{"structure": "CCN1CCc2nc(NC(=O)c3cc(Br)c[nH]3)sc2C1", "Percent Effect": -7.995}
{"structure": "COCCn1cnnc1CN(C)Cc1nc(C)no1", "Percent Effect": 21.92}
{"structure": "CC(C)(C)NC(=O)NCc1cncnc1N", "Percent Effect": 0.5946}
{"structure": "NCCCC1(O)CCC1", "Percent Effect": 0.8781}
{"structure": "Cc1nn(CC(=O)NCCc2c[nH]cn2)c(C)c1C", "Percent Effect": 2.88}
{"structure": "COCCCn1ccc(NC2CCSC2)n1", "stereo": "configuration not stated", "Percent Effect": -9.17}
{"structure": "COc1ccc(C(N)c2ccncc2)cc1", "stereo": "configuration not stated", "Percent Effect": 2.877}
{"structure": "CC(C)(N)c1ncc[nH]1", "Percent Effect": -9.638}
{"structure": "Cc1noc(C)c1CN(C)C(=O)c1ccc(=O)n(C)c1", "Percent Effect": 17.77}
{"structure": "CC(C)C(NS(=O)(=O)N1CCOCC1)c1ccccc1", "stereo": "configuration not stated", "Percent Effect": -6.05}
{"structure": "O=C(NC1CC1)[C@@H]1CCCN1C(=O)c1ccccc1", "Percent Effect": -12.93}
{"structure": "COc1ccc(OC)c(-n2c(CCN)n[nH]c2=O)c1", "Percent Effect": 14.48}
{"structure": "COCCC(C)(O)C(C)(C)CN", "stereo": "configuration not stated", "Percent Effect": 8.353}
{"structure": "CC(C#N)CNC(=O)N(C)CCCN1CCCC1", "stereo": "configuration not stated", "Percent Effect": -2.884}
{"structure": "NC(=O)C1CCc2ccccc21", "stereo": "configuration not stated", "Percent Effect": -8.127}
{"structure": "CSc1ccc(CNC(=O)N[C@@H]2C=C[C@H](CO)C2)cc1", "Percent Effect": 9.168}
{"structure": "COc1cccc(C(F)(F)CN)n1", "Percent Effect": -25.18}
{"structure": "COc1cc(NC(=O)N(C)CCN(C)C)ccc1F", "Percent Effect": -3.855}
{"structure": "O=C(NCCn1ccnc1)N1CCCC1", "Percent Effect": 5.708}
{"structure": "Cc1ccnc(CC2CCCCN2)c1", "stereo": "configuration not stated", "Percent Effect": -26.9}
{"structure": "CCC[C@H]1CN(C(=O)c2ccnc(NC)c2)C[C@@H]1N", "Percent Effect": 6.458}
{"structure": "COc1ccc(CC(=O)N2CCNCC2)cc1", "Percent Effect": -18.03}
{"structure": "Cc1nonc1NC(=O)CSc1c[nH]nn1", "Percent Effect": -4.875}
{"structure": "COCCCNC(=O)CN1CCC2(CC1)OCCO2", "Percent Effect": 1.986}
{"structure": "NC1CCCc2sccc21", "stereo": "configuration not stated", "Percent Effect": 1.116}
{"structure": "CNC(=O)c1cc(C)n(C)n1", "Percent Effect": -47.31}
{"structure": "NCC1CCCOC1", "stereo": "configuration not stated", "Percent Effect": 18.47}
{"structure": "CCC(N)(CC)CCO", "Percent Effect": -15.73}
{"structure": "CCC(=O)NC1CN(C(=O)OC(C)(C)C)C1", "Percent Effect": -3.826}
{"structure": "CN(C(=O)COc1cccc(C#N)c1)C1CC1", "Percent Effect": -19.38}
{"structure": "COC(=O)c1ccc2[nH]c(CN)nc2c1", "Percent Effect": -7.505}
{"structure": "O=C(Nc1ccc(F)cc1F)N(CCO)CCCO", "Percent Effect": -10.16}
{"structure": "Fc1ccc(CSc2nnnn2CC2CCCO2)cc1", "stereo": "configuration not stated", "Percent Effect": 0.433}

Measurements from “University of Dundee, Small-Polar-MMV Screening Library” (2021), ChEMBL document CHEMBL3988442.